Measurements from PubChem BioAssay AID212 (DTP/NCI, 2004).
The list shows only some results of the screen, not a fair sample: it gathers tests that were run many times, whatever their T/C, doses with no T/C, and many T/C values between a quarter and a half above the control. Further doses and runs are listed elsewhere. T/C gives the treated animals as a percentage of the vehicle group. Schedule codes are those of the source, taken here to give the interval after Q, in days (D) or hours (H), and the number of doses after X. Some T/C values carry the count of animals alive at the toxicity check (mostly the fifth day); where none is given, no animal had died by that day. Some entries hold several experiments; the results are listed from low to high. Signs of the kind (2×) count equal records among those shown. Some doses have a count of surviving animals in place of a T/C: the source holds a T/C of zero for them, seemingly a mark for toxic or unscored doses. Counts of survivors are from the toxicity check (mostly the fifth day) where no day follows; animals may have died later.

Tested on: BDF1 mice, colon carcinoma 38 sc, T/C %
Experiment: NCI In Vivo Anticancer Drug Screen. Data for tumor model Colon Carcinoma 38 (subcutaneous) in B6D2F1 (BDF1) mice
Conditions: for T/C: evaluated on day 20
Summary of the method: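 Transplantable tumor in mice; compound-treated vs vehicle-dosed controls. Measured survival or tumor size; value = T ÷ C.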

[1] = T/C endpoint: median tumor weight (est.), dose: 200.0 mg/kg/injection, schedule: Q07DX002 (ip), vehicle: saline, higher T/C = larger tumour
[2] = T/C endpoint: median tumor weight (est.), dose: 25.0 mg/kg/injection, schedule: Q07DX002 (ip), vehicle: Klucel (hydroxypropylcellulose) (HPC), higher T/C = larger tumour

For `CCN(CC)CCOC(=O)Cc1cccc2c(=O)cc(-c3ccccc3)oc12`, the survivor count (T/C endpoint: median survival time, dose: 88.0 mg/kg/injection, schedule: Q07DX002 (ip), vehicle: saline, higher T/C = longer survival) was 6 of 10 on day 97, the survivor count (T/C endpoint: median survival time, dose: 300.0 mg/kg/injection, schedule: Q07DX002 (ip), vehicle: saline, higher T/C = longer survival) was 0 of 10 on day 97 and the survivor count (T/C endpoint: median survival time, dose: 450.0 mg/kg/injection, schedule: Q07DX002 (ip), vehicle: saline, higher T/C = longer survival) was 0 of 10 on day 97. For the same compound, the survivor count (T/C endpoint: median survival time, dose: 675.0 mg/kg/injection, schedule: Q07DX002 (ip), vehicle: saline, higher T/C = longer survival) was 0 of 10 on day 97, the T/C (T/C endpoint: median tumor weight (est.), dose: 21.0 mg/kg/injection, schedule: Q07DX002 (iv), vehicle: saline, higher T/C = larger tumour) was 129 % of control and the T/C (T/C endpoint: median tumor weight (est.), dose: 25.0 mg/kg/injection, schedule: Q07DX002 (ip), vehicle: saline, higher T/C = larger tumour) was 62, 88, 97, 105 % of control. The T/C (T/C endpoint: median tumor weight (est.), dose: 50.0 mg/kg/injection, schedule: Q07DX002 (ip), vehicle: Klucel (hydroxypropylcellulose) (HPC), higher T/C = larger tumour) was 126 % of control, the T/C (T/C endpoint: median tumor weight (est.), dose: 50.0 mg/kg/injection, schedule: Q07DX002 (ip), vehicle: saline, list 1 of 2, higher T/C = larger tumour) was 37, 42, 46, 49, 55, 58, 59, 60, 62, 63, 69, 71, 75, 78, 82, 84, 86, 88, 89, 97 (2×), 99, 106, 107, 109, 111, 112, 121, 122, 124, 126 [9 of 10 alive on day 20], 134 [8 of 10 alive on day 20], 143, 192 % of control [9 of 10 alive on day 20] and the T/C (T/C endpoint: median tumor weight (est.), dose: 50.0 mg/kg/injection, schedule: Q07DX002 (ip), vehicle: saline, list 2 of 2, higher T/C = larger tumour) was 34 [8 of 10 alive on day 20], 38, 42, 48, 54 [9 of 10 alive on day 20], 56, 59 (2×), 61, 62, 64 [9 of 10 alive on day 20], 69, 73, 77 [9 of 10 alive on day 20], 80 [8 of 10 alive on day 20], 83, 85, 88, 89, 94, 97 [9 of 10 alive on day 20], 99, 100, 106, 108, 109, 111 [9 of 10 alive on day 20], 113 [7 of 10 alive on day 20], 122, 123, 125, 129, 137, 155 % of control. The survivor count (T/C endpoint: median tumor weight (est.), dose: 50.0 mg/kg/injection, schedule: Q07DX002 (iv), vehicle: saline, higher T/C = larger tumour) was 0 of 10 on day 20 and 5 of 10 on day 20, the T/C (T/C endpoint: median tumor weight (est.), dose: 100.0 mg/kg/injection, schedule: Q07DX002 (ip), vehicle: saline, list 1 of 2, higher T/C = larger tumour) was 42, 51, 56, 57, 65 [8 of 10 alive on day 20], 69, 69 [9 of 10 alive on day 20], 71, 72, 78 [9 of 10 alive on day 20], 79, 81, 82, 83, 85, 89, 90 [9 of 10 alive on day 20], 92, 94, 96, 99, 100, 101, 104, 114, 124, 129, 134 [9 of 10 alive on day 20], 138, 139 [9 of 10 alive on day 20], 142, 152, 158, 168 % of control and the T/C (T/C endpoint: median tumor weight (est.), dose: 100.0 mg/kg/injection, schedule: Q07DX002 (ip), vehicle: saline, list 2 of 2, higher T/C = larger tumour) was 32, 45, 53, 56, 64, 69, 69 [9 of 10 alive on day 20], 70 [9 of 10 alive on day 20], 71, 78 [9 of 10 alive on day 20], 79, 80, 82, 83, 84 [9 of 10 alive on day 20], 87, 89, 91, 92 [7 of 10 alive on day 20], 96, 99 [8 of 10 alive on day 20], 100, 101, 102, 113, 115, 127, 132, 135, 139, 141, 146, 158, 163 % of control. The survivor count (T/C endpoint: median tumor weight (est.), dose: 100.0 mg/kg/injection, schedule: Q07DX002 (iv), vehicle: saline, higher T/C = larger tumour) was 0 of 10 on day 20, the survivor count (T/C endpoint: median tumor weight (est.), dose: 150.0 mg/kg/injection, schedule: Q07DX002 (iv), vehicle: saline, higher T/C = larger tumour) was 0 of 10 on day 20 and the T/C [1] was 1 [8 of 10 alive on day 20], 2 (2×), 4, 8, 10, 16, 20, 38, 95 % of control. For the same compound, the survivor count [1] was 0 of 10 on day 20, 3 of 10 on day 20, 5 of 10 on day 20, 6 of 10 on day 20, the survivor count (T/C endpoint: median tumor weight (est.), dose: 200.0 mg/kg/injection, schedule: Q07DX002 (iv), vehicle: saline, higher T/C = larger tumour) was 0 of 10 on day 20 and the survivor count (T/C endpoint: median tumor weight (est.), dose: 300.0 mg/kg/injection, schedule: Q07DX002 (iv), vehicle: saline, higher T/C = larger tumour) was 0 of 10 on day 20. The survivor count (T/C endpoint: median tumor weight (est.), dose: 356.0 mg/kg/injection, schedule: Q07DX002 (ip), vehicle: saline, higher T/C = larger tumour) was 6 of 10 on day 20, the survivor count (T/C endpoint: median tumor weight (est.), dose: 400.0 mg/kg/injection, schedule: Q07DX002 (ip), vehicle: saline, higher T/C = larger tumour) was 0 of 10 on day 20, 1 of 10 on day 20, 4 of 10 on day 20 and the survivor count (T/C endpoint: median tumor weight (est.), dose: 400.0 mg/kg/injection, schedule: Q07DX002 (iv), vehicle: saline, higher T/C = larger tumour) was 0 of 10 on day 20. The survivor count (T/C endpoint: median tumor weight (est.), dose: 800.0 mg/kg/injection, schedule: Q07DX002 (ip), vehicle: saline, higher T/C = larger tumour) was 0 of 10 on day 20.
In the case of `CC(=O)[O][Pb]([O]C(C)=O)([c]1ccccc1)[c]1ccccc1`, the T/C (T/C endpoint: median tumor weight (est.), dose: 12.5 mg/kg/injection, schedule: Q07DX002 (ip), vehicle: Klucel (hydroxypropylcellulose) (HPC), higher T/C = larger tumour) is reported as 143 % of control, the T/C [2] is reported as 146 and 148 % of control and the T/C (T/C endpoint: median tumor weight (est.), dose: 200.0 mg/kg/injection, schedule: Q07DX002 (ip), vehicle: Klucel (hydroxypropylcellulose) (HPC), higher T/C = larger tumour) is reported as 146 % of control.
With `C[C@]12CCC(=O)C(O)=C1CC[C@@H]1[C@@H]2CC[C@]2(C)C(=O)CC[C@@H]12` the T/C [2] was 125 % of control.
With `C=C1C(=O)OC2CC1CCC1(C)OC1CCC(C)=CCCC2(C)O` (configuration not stated) the T/C (T/C endpoint: median tumor weight (est.), dose: 15.0 mg/kg/injection, schedule: Q07DX002 (ip), vehicle: Klucel (hydroxypropylcellulose) (HPC), higher T/C = larger tumour) was 135 % of control.
